Laboratory results from PubChem BioAssay AID248 (DTP/NCI, 2004).
The list does not hold the whole screen: it is rich in T/C values a quarter to a half above the control, in often repeated tests (any T/C) and in doses without a T/C. Other doses and runs of a compound stand elsewhere. T/C gives the treated animals as a percentage of the vehicle group. Some doses have a count of surviving animals in place of a T/C: the source holds a T/C of zero for them, seemingly a mark for toxic or unscored doses. Some doses without a T/C left all or most animals alive at the check, yet need not have been tolerated: survival well below the control is almost never listed, so the zero probably covers shortened survival too. Survivors were counted at the toxicity check, usually on the fifth day, unless a day is given; later deaths do not show. Schedule codes are those of the source, read here as Q, the interval in days (D) or hours (H), X, the number of doses. Some entries hold several experiments; their values stand side by side, smallest first. Some schedule codes hold Z or #, which are not explained here. Where survival is the endpoint, the PubChem record calls one and a half times the control and up active, and a quarter to a half above the control has no call in these data; cut-offs in other NCI protocols can differ. Some T/C values carry the count of animals alive at the toxicity check (mostly the fifth day); where none is given, no animal had died by that day.

System: L1210 leukemia ip in BDF1 mice, survival T/C
Test: NCI In Vivo Anticancer Drug Screen. Data for tumor model L1210 Leukemia (intraperitoneal) in B6D2F1 (BDF1) mice
Details: T/C endpoint: mean survival time, higher T/C = longer survival
[1] = dose: 200.0 mg/kg/injection, schedule: Q04DX003 (ip), vehicle: saline with Tween-80
[2] = dose: 400.0 mg/kg/injection, schedule: Q04DX003 (ip), vehicle: saline with Tween-80
[3] = dose: 400.0 mg/kg/injection, schedule: Q01DX009 (ip), vehicle: Klucel (hydroxypropylcellulose) (HPC)
[4] = dose: 100.0 mg/kg/injection, schedule: Q01DX001 (ip), vehicle: carboxymethylcellulose (CMC)
[5] = dose: 200.0 mg/kg/injection, schedule: Q01DX001 (ip), vehicle: carboxymethylcellulose (CMC)
[6] = dose: 60.0 mg/kg/injection, schedule: Q01DX001 (ip), vehicle: carboxymethylcellulose (CMC)
[7] = dose: 40.0 mg/kg/injection, schedule: Q01DX001 (ip), vehicle: carboxymethylcellulose (CMC)

Structure (SMILES): CNc1nc(Cl)ncc1C
- survivor count (dose: 1.0 mg/kg/injection, schedule: Q01DX Z (ip), vehicle: methylcellulose (MC)): 1 of 6
- survivor count (dose: 3.0 mg/kg/injection, schedule: Q01DX Z (ip), vehicle: methylcellulose (MC)): 0 of 6
- survivor count (dose: 6.0 mg/kg/injection, schedule: Q01DX Z (ip), vehicle: methylcellulose (MC)): 5 of 6
- survivor count (dose: 12.0 mg/kg/injection, schedule: Q01DX Z (ip), vehicle: methylcellulose (MC)): 1 of 6
- survivor count (dose: 25.0 mg/kg/injection, schedule: Q01DX Z (ip), vehicle: methylcellulose (MC)): 0 of 6
- survivor count (dose: 50.0 mg/kg/injection, schedule: Q01DX Z (ip), vehicle: methylcellulose (MC)): 0 of 6
- survivor count (dose: 100.0 mg/kg/injection, schedule: Q01DX Z (ip), vehicle: methylcellulose (MC)): 0 of 6
- survivor count (dose: 200.0 mg/kg/injection, schedule: Q01DX Z (ip), vehicle: methylcellulose (MC)): 0 of 6

Structure (SMILES): Nn1cnnc1
- survivor count (dose: 200.0 mg/kg/injection, schedule: Q01DX009 (ip), vehicle: saline): 6 of 6
- survivor count (dose: 400.0 mg/kg/injection, schedule: Q01DX009 (ip), vehicle: saline): 4 of 6

Structure (SMILES): CN(C)C=Nc1ncnc2[nH]ncc12
- T/C [1]: 125 % of control
- survivor count [2]: 1 of 6

Structure (SMILES): CC1=NC2(CCCCC2)C[N+]1(Cc1ccccc1)Cc1ccccc1
- survivor count [1]: 6 of 6
- survivor count [2]: 3 of 6

Structure (SMILES): CNC(=S)N(N)c1ccccc1
- survivor count [3]: 1 of 6

Structure (SMILES): CNNCc1ccccc1
- survivor count (dose: 400.0 mg/kg/injection, schedule: Q01DX001 (ip), vehicle: saline): 2 of 4

Structure (SMILES): CCOC(CN1CCCCC1)c1ccccc1 (stereo not drawn)
- survivor count (dose: 100.0 mg/kg/injection, schedule: Q01DX009 (ip), vehicle: saline with Tween-80): 1 of 6
- survivor count (dose: 200.0 mg/kg/injection, schedule: Q01DX009 (ip), vehicle: saline with Tween-80): 0 of 6
- survivor count (dose: 400.0 mg/kg/injection, schedule: Q01DX009 (ip), vehicle: saline with Tween-80): 0 of 6

Structure (SMILES): CCOC(=O)C(=Cc1ccccc1Cl)C(=O)OCC
- survivor count [3]: 0 of 6
- survivor count (dose: 400.0 mg/kg/injection, schedule: Q04DX003 (ip), vehicle: Klucel (hydroxypropylcellulose) (HPC)): 6 of 6

Structure (SMILES): ClC1(Cl)C2CC(C3C4C=CC(C4)C32)C1(Cl)Cl (stereo not drawn)
- survivor count [4]: 4 of 4
- survivor count [5]: 4 of 4

Structure (SMILES): CN(C)CCO/C(CN(C)C)=C(\C#N)c1ccccc1
- survivor count [6]: 0 of 6
- survivor count (dose: 75.0 mg/kg/injection, schedule: Q01DX001 (ip), vehicle: carboxymethylcellulose (CMC)): 3 of 6
- survivor count (dose: 150.0 mg/kg/injection, schedule: Q01DX001 (ip), vehicle: carboxymethylcellulose (CMC)): 1 of 6
- survivor count (dose: 300.0 mg/kg/injection, schedule: Q01DX001 (ip), vehicle: carboxymethylcellulose (CMC)): 0 of 6

Structure (SMILES): C=C(C)c1ccc(C)c(C)c1
- survivor count (dose: 100.0 mg/kg/injection, schedule: Q04DX003 (ip), vehicle: saline with Tween-80): 6 of 6

Structure (SMILES): CC1CC(C)(C)N=C(CCC2CCCCCC2=O)O1 (stereo not drawn)
- survivor count [2]: 3 of 6

Structure (SMILES): C#CC1(OCC(O)CO)CCCCC1 (stereo not drawn)
- survivor count (dose: 400.0 mg/kg/injection, schedule: Q01DX009 (ip), vehicle: water): 0 of 6

Structure (SMILES): O=NN(CCCl)C(=O)NC1CCCCCCCCCCC1
- T/C (dose: 18.0 mg/kg/injection, schedule: Q01DX001 (ip), vehicle: carboxymethylcellulose (CMC)): 131 % of control
- T/C (dose: 26.0 mg/kg/injection, schedule: Q01DX001 (ip), vehicle: carboxymethylcellulose (CMC)): 138 % of control
- T/C [7]: 149 % of control
- T/C [6]: 138 % of control
- T/C (dose: 93.0 mg/kg/injection, schedule: Q01DX001 (ip), vehicle: carboxymethylcellulose (CMC)): 148 % of control
- T/C (dose: 125.0 mg/kg/injection, schedule: Q01DX001 (ip), vehicle: carboxymethylcellulose (CMC)): 140 % of control
- T/C (dose: 298.0 mg/kg/injection, schedule: Q01DX001 (ip), vehicle: other): 138 % of control
- T/C (dose: 1750.0 mg/kg/injection, schedule: Q01DX001 (ip), vehicle: other): 135 % of control

Structure (SMILES): O=C(Nc1ccc(C2=NCCCN2)cc1)c1ccc(C(=O)Nc2ccc(C3=NCCCN3)cc2)cc1
- T/C (dose: 1.0 mg/kg/injection, schedule: Q01DX010 (ip), vehicle: other): 136 % of control [5 of 6 alive]
- T/C (dose: 2.0 mg/kg/injection, schedule: Q01DX010 (iv), vehicle: saline): 141 % of control
- T/C (dose: 4.0 mg/kg/injection, schedule: Q01DX010 (sc), vehicle: olive oil, sesame oil, peanut oil): 148 % of control
- T/C (dose: 8.0 mg/kg/injection, schedule: Q01DX010 (ip), vehicle: other): 128 % of control
- T/C (dose: 8.0 mg/kg/injection, schedule: Q01DX010 (sc), vehicle: olive oil, sesame oil, peanut oil): 130 % of control
- survivor count (dose: 8.0 mg/kg/injection, schedule: Q01DX Z (iv), vehicle: other): 0 of 6
- T/C (dose: 14.2 mg/kg/injection, schedule: Q01DX Z (ip), vehicle: carboxymethylcellulose (CMC)): 135 % of control
- survivor count (dose: 16.0 mg/kg/injection, schedule: Q01DX010 (ip), vehicle: other): 0 of 6
- T/C (dose: 16.0 mg/kg/injection, schedule: Q01DX010 (ip), vehicle: saline): 131 % of control
- survivor count (dose: 16.0 mg/kg/injection, schedule: Q01DX Z (iv), vehicle: other): 0 of 6
- T/C (dose: 21.3 mg/kg/injection, schedule: Q01DX Z (ip), vehicle: carboxymethylcellulose (CMC)): 138 % of control
- survivor count (dose: 62.5 mg/kg/injection, schedule: Q01DX010 (sc), vehicle: olive oil, sesame oil, peanut oil): 6 of 6
- T/C (dose: 125.0 mg/kg/injection, schedule: Q01DX010 (oral), vehicle: other): 127 % of control
- survivor count (dose: 125.0 mg/kg/injection, schedule: Q01DX010 (sc), vehicle: olive oil, sesame oil, peanut oil): 0 of 6 and 6 of 6
- T/C (dose: 133.0 mg/kg/injection, schedule: Q#A X Z (oral), vehicle: saline): 132 % of control
- T/C (dose: 222.0 mg/kg/injection, schedule: Q## X010 (oral), vehicle: saline): 126 % of control
- T/C (dose: 240.0 mg/kg/injection, schedule: Q01DX Z (oral), vehicle: carboxymethylcellulose (CMC)): 128 % of control [5 of 6 alive]
- survivor count (dose: 250.0 mg/kg/injection, schedule: Q01DX010 (sc), vehicle: olive oil, sesame oil, peanut oil): 6 of 6
- T/C (dose: 266.0 mg/kg/injection, schedule: Q01DX Z (oral), vehicle: saline): 125 % of control
- T/C (dose: 300.0 mg/kg/injection, schedule: Q#A X Z (oral), vehicle: saline): 129 % of control
- survivor count (dose: 500.0 mg/kg/injection, schedule: Q01DX001 (im), vehicle: steroid suspending solution): 3 of 6
- T/C (dose: 1800.0 mg/kg/injection, schedule: Q03DX Z (oral), vehicle: saline): 129 % of control

Structure (SMILES): CC(=O)SCC(C)SC(C)=O (stereo not drawn)
- survivor count (dose: 100.0 mg/kg/injection, schedule: Q04DX002 (ip), vehicle: saline with Tween-80): 0 of 3
- survivor count (dose: 200.0 mg/kg/injection, schedule: Q04DX002 (ip), vehicle: saline with Tween-80): 0 of 3
- survivor count (dose: 400.0 mg/kg/injection, schedule: Q04DX002 (ip), vehicle: saline with Tween-80): 0 of 3

Structure (SMILES): CC(=O)Cc1cc(=O)[nH]c(=O)[nH]1
- survivor count (dose: 50.0 mg/kg/injection, schedule: Q01DX009 (ip), vehicle: saline with Tween-80): 3 of 3

Structure (SMILES): N#CC(O)c1ccccc1 (stereo not drawn)
- survivor count (dose: 15.0 mg/kg/injection, schedule: Q01DX Z (ip), vehicle: saline): 6 of 6
- survivor count (dose: 20.0 mg/kg/injection, schedule: Q01DX001 (ip), vehicle: carboxymethylcellulose (CMC)): 2 of 4
- survivor count (dose: 20.0 mg/kg/injection, schedule: Q01DX009 (ip), vehicle: acetone): 0 of 6
- survivor count (dose: 20.0 mg/kg/injection, schedule: Q01DX Z (ip), vehicle: saline): 0 of 6
- survivor count [7]: 0 of 4
- survivor count (dose: 80.0 mg/kg/injection, schedule: Q01DX001 (ip), vehicle: carboxymethylcellulose (CMC)): 0 of 4
- survivor count [4]: 0 of 4
- survivor count [5]: 0 of 4
- survivor count (dose: 400.0 mg/kg/injection, schedule: Q01DX001 (ip), vehicle: carboxymethylcellulose (CMC)): 0 of 4
